# Test results from patent publication US9150592B2, “Heterocyclic nuclear hormone receptor modulators” (AbbVie Inc., priority 2012, dated 2015).
# The chains behind the UniProt entries cited, without tags or fusion partners.
# UniProt P04150, whole entry: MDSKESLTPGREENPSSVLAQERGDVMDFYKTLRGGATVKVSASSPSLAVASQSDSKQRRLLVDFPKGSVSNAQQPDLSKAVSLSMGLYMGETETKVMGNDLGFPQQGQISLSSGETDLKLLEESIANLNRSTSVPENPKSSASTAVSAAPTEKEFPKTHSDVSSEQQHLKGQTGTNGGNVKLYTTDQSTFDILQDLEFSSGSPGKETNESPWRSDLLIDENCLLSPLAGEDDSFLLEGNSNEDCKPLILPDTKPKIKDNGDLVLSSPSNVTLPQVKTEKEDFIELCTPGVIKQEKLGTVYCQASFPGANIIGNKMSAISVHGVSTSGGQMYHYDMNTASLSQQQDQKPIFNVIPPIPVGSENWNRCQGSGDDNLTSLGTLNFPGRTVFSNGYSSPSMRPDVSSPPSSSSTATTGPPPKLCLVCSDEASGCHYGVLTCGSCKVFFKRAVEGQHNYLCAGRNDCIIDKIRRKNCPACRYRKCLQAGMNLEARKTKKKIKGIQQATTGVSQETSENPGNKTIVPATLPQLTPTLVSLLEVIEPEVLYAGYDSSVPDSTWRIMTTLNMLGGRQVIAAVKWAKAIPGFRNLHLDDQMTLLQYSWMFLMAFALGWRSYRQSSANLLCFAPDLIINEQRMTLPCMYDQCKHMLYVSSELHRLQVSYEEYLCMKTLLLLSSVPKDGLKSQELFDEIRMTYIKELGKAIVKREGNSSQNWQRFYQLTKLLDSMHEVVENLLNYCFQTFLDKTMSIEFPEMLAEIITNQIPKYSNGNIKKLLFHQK
# Structures were worked out from names or drawings and are uncertain.
# Columns and labels:
# [1] = system: IL-6 in A549 cells stimulated with IL-1β; assay: A549 Cell Assay to Measure Inflammation Markers (inhibition of IL-1β-induced IL-6); conditions: intrinsic activity, Emax class ranges
# [2] = target: Glucocorticoid Receptor (GR) (Homo sapiens, UniProt P04150); assay: GR Fluorescence Polarization Assay (PolarScreen Glucocorticoid Receptor Competitor Assay, Red); conditions: read-out: GR binding, IC50 class ranges
structure (smiles),measurement,setting,value
Cc1cc(Cl)ccc1[C@@H]1SC[C@@H](C)Nc2c1c(C)nn2C (relative stereo),A549 Emax,[1],D (a compound with Emax<50%)
same,IC50,[2],< 100 nM
